In PubChem BioAssay (NCATS):
Where “and” joins values, the source holds several entries; their conditions need not be identical. Equal values may be shown once. This is one part of the list. These are further read-outs of the screen, such as a control signal, another cell line or another target. No call is given for them. Most of these compounds were active or inconclusive in the main read-out, so they are no random draw. For some assays here: Words in brackets tell the shape of the fitted curve; partial curves, single points and poor fits give uncertain potencies.

Legend:
[1] = qHTS assay for small molecule antagonists of androgen receptor signaling (AID 588516); details: AR-UAS-bla HEK293, beta-lactamase ratio, antagonist mode, 16 h
How it was run: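 Antagonist-mode qHTS: inhibition of R1881 (10 nM)-driven beta-lactamase expression in GripTite HEK 293 cells is measured after 16 h; values are Hill-derived IC50s normalized between R1881 and DMSO wells.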

[2] = qHTS assay for small molecule antagonists of peroxisome proliferator-activated receptor delta signaling (AID 588535); details: HEK293T PPARd-UAS-bla, beta-lactamase FRET ratio, 18 h; 460 nm channel;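 also: cells co-treated with a PPAR-delta agonist as stimulator during compound exposure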
How it was run: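 Inhibition of PPAR-delta response element-driven beta-lactamase expression is measured in HEK293T cells exposed to a compound titration series for 18 hrs at 37 C. Half-maximal inhibition comes from Hill equation fitting.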

[3] = qHTS assay for small molecule antagonists of peroxisome proliferator-activated receptor gamma signaling (AID 588537); details: HEK293 PPARg-UAS-bla, beta-lactamase ratio, antagonist mode; measured here: W460 blue channel
How it was run: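 Compounds are tested as concentration series for inhibition of rosiglitazone-driven (50 nM) reporter expression in GeneBLAzer PPAR-gamma-UAS-bla HEK293 cells. After 16 h at 37 C, CCF4 substrate is added for 2 h at room temperature and blue/green fluorescence is measured.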

[4] = qHTS assay for small molecule antagonists of vitamin D receptor signaling (AID 588541); details: HEK293T VDR-UAS-bla, beta-lactamase ratio, antagonist mode; measured here: W460 blue channel (cell viability)
[5] = qHTS assay for small molecule agonists of retinoid X receptor alpha signaling (AID 588544); details: HEK293T RXRa-UAS-bla, beta-lactamase reporter, 18 h; 530 nm emission
[6] = qHTS assay for small molecule antagonists of retinoid X receptor alpha signaling (AID 588546); details: HEK293T RXRa-UAS-bla, beta-lactamase ratio, antagonist mode; measured here: W530 green channel, cytotoxicity proxy;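 also: cells stimulated with 9-cis-retinoic acid as agonist; % is scaled to controls: 0 for no effect and ±100 for the full control effect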
How it was run: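 Beta-lactamase reporter inhibition, read as CCF4 fluorescence ratio (ex 405, em 460/530 nm) after 2 h at RT. HEK293T UAS-bla cells, 2500/well, were stimulated with 9-cis-RA at 500 or 100 nM final alongside test compound for 18 h at 37 C.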

[7] = qHTS assay for small molecule antagonists of glucocorticoid receptor signaling (AID 588533); details: HeLa MMTV-bla, GRE beta-lactamase ratio, antagonist mode, 18 h; measured here: W530 channel AC50
[8] = measured here: W460 blue channel fit
[9] = measured here: W530 green channel, cytotoxicity/artifact

SMILES	AC50 [1, 8]	AC50 [1, 9]	max response [2] [%]	AC50 [3]	AC50 [4]	max response [5]	max response [6]	AC50 [7]
[CH3][Hg][Cl]	31.6 µM [falling, full curve]	14.1 µM [rising, partial curve]	-91	25.1 µM [falling, full curve, poor fit]	5.01 µM [falling, full curve, poor fit]	-36.4%	–	–
CCCCCCCCCCCCC1=C(OC(C)=O)C(=O)c2ccccc2C1=O	25.1 µM [falling, single point]	28.2 µM [rising, single point]	-74	–	–	-29.6%	3.72%	–
C=CC(=O)NCNC(=O)C=C	44.7 µM [rising, single point]	–	108	50.1 µM [rising, single point]	–	–	–	–
C=CC(=O)OCC(CC)(COC(=O)C=C)COC(=O)C=C	50.1 µM [falling, single point]	39.8 µM [rising, partial curve]	-87	–	25.1 µM [falling, full curve]	22.9%	–	–
CCC[CH2][Sn]1([CH2]CCC)[O]C(=O)C=CC(=O)[O]1	7.94 µM [falling, full curve]	39.8 µM [rising, partial curve]	–	44.7 µM [falling, partial curve]	–	39.8%	44.4%	–
c1cc(OCC2CO2)cc(OCC2CO2)c1 (stereo not drawn)	–	25.1 µM [rising, full curve, poor fit]	-82.3	–	44.7 µM [falling, single point]	66.4% and 6.12%	49.6%	12.6 µM [falling, full curve, poor fit]
CC1(C)CN=C(NN=C(/C=C/c2ccc(C(F)(F)F)cc2)/C=C/c2ccc(C(F)(F)F)cc2)NC1	39.8 µM [falling, partial curve, poor fit]	–	–	35.5 µM [falling, partial curve, poor fit]	35.5 µM [falling, partial curve]	-52.6%	-41.8%	39.8 µM [falling, partial curve]
Nc1cccc2c(N)cccc12	0.00501 µM [falling, full curve, poor fit]	–	80.1	–	–	–	–	–
CCOc1cc(C(C)(C)C)ccc1C1COC(c2c(F)cccc2F)=N1 (stereo not drawn)	63.1 µM [falling, single point]	35.5 µM [rising, partial curve]	–	–	–	14.5%	-14.1%	–
CCCCNC(=O)n1c(NC(=O)OC)nc2ccccc21	3.16 µM [falling, full curve, poor fit]	–	–	0.001 µM [falling, full curve, poor fit]	7.94 µM [falling, partial curve, poor fit]	32.5%	1.11%	39.8 µM [falling, partial curve, poor fit]
c1ccc2cc3c(cc2c1)-c1cccc2cccc-3c12	31.6 µM [rising, partial curve] and 5.62 µM [rising, full curve]	7.94 µM [rising, full curve] and 8.91 µM [rising, full curve]	–	15.8 µM [rising, partial curve, poor fit] and 1.78 µM [rising, full curve]	2.51 µM [rising, full curve] and 4.47 µM [rising, full curve]	33.6%	39.5% and 21.7%	15.8 µM [rising, partial curve, poor fit] and 14.1 µM [rising, partial curve, poor fit]
CO/C=C(/C(=O)OC)c1ccccc1Oc1cc(Oc2ccccc2C#N)ncn1	44.7 µM [falling, partial curve, poor fit]	–	-30.5	–	–	24.4%	6.96%	50.1 µM [falling, partial curve, poor fit]
Cc1ccc(-c2c(Cl)nc(C#N)n2S(=O)(=O)N(C)C)cc1	2.51 µM [rising, partial curve]	44.7 µM [rising, single point]	–	–	–	30.9%	20%	5.62 µM [rising, partial curve, poor fit]
BrCC(Br)(Br)Br	25.1 µM [falling, full curve, poor fit]	–	2.83	50.1 µM [rising, single point]	–	–	–	–

A second format for two compounds above:
CCCCCCCCCCCCC1=C(OC(C)=O)C(=O)c2ccccc2C1=O
  AC50 [1, 8]: 25.1 µM [falling, single point]
  AC50 [1, 9]: 28.2 µM [rising, single point]
  max response [2] [%]: -74
  max response [5]: -29.6%
  max response [6]: 3.72%
C=CC(=O)NCNC(=O)C=C
  AC50 [1, 8]: 44.7 µM [rising, single point]
  max response [2] [%]: 108
  AC50 [3]: 50.1 µM [rising, single point]
